Earlier results in patent US4937249A, “Imide derivatives and their pharmaceutical use” (Sumitomo Pharmaceuticals Company, Limited, priority 1987, dated 1990).
For at least one compound, name, drawing or mass did not settle the structure.

Assays:
D2 receptor = conditions: background; cited from earlier work
anti-dopamine activity = conditions: background; cited from earlier work

In the case of `O=C1CC2(CCCC2)CC(=O)N1CCCCN1CCN(c2nsc3ccccc23)CC1` [Tiaspirone, 8-[4-(3-benzisothiazolyl)-1-piperazinylbutyl]-8-azaspiro[4,5]decane-7,9-dione], the “efficacy against positive symptoms (anti-dopamine activity, D2 receptor binding)” value (D2 receptor) is given as “more potent than chlorpromazine and haloperidol” and the “anti-dopamine activity on oral administration” value (anti-dopamine activity) is given as “drastically reduces on oral administration”.
